# In the supplement of paper PMC8728848:
# This is one part of the list.
# Tests used:
# Assay in all cases: glycan array binding signal (z-score within array); higher = stronger binding
# Details in all cases: glycan notation: IUPAC condensed, linker removed
# Fuc(a1-2)Gal = biological target: Fuc(a1-2)Gal
# Summary of the method: (§1)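 Arrays were curated from the Consortium for Functional Glycomics database, 3228 in total, and kept only where the protein sequence was available. Binding is expressed as a within-array Z-score. This score was averaged across arrays of the same protein sequence at different concentrations or buffers and across linkers, and negative values can be read as non-binding.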
# Fuc(a1-2)Gal(b1-3)GalNAc = biological target: Fuc(a1-2)Gal(b1-3)GalNAc
# Summary of the method: as §1
# [1] = biological target: Fuc(a1-2)Gal(b1-3)GalNAc(a1-3)[Fuc(a1-2)]Gal(b1-4)Glc
# Summary of the method: as §1
# [2] = biological target: Fuc(a1-2)Gal(b1-3)GalNAc(a1-3)[Fuc(a1-2)]Gal(b1-4)GlcNAc
# Summary of the method: as §1
# [3] = biological target: Fuc(a1-2)Gal(b1-3)GalNAc(b1-3)Gal
# Summary of the method: as §1
# [4] = biological target: Fuc(a1-2)Gal(b1-3)GalNAc(b1-3)Gal(a1-4)Gal(b1-4)Glc
# Summary of the method: as §1
# [5] = biological target: Fuc(a1-2)Gal(b1-3)GalNAc(b1-4)[Neu5Ac(a2-3)]Gal(b1-4)Glc
# Summary of the method: as §1
# Fuc(a1-2)Gal(b1-3)GlcNAc = biological target: Fuc(a1-2)Gal(b1-3)GlcNAc
# Summary of the method: as §1
# [6] = biological target: Fuc(a1-2)Gal(b1-3)GlcNAc(b1-2)Man(a1-3)[Fuc(a1-2)Gal(b1-3)GlcNAc(b1-2)Man(a1-6)]Man(b1-4)GlcNAc(b1-4)GlcNAc
# Summary of the method: as §1
# [7] = biological target: Fuc(a1-2)Gal(b1-3)GlcNAc(b1-2)Man(a1-3)[Fuc(a1-2)Gal(b1-3)GlcNAc(b1-2)Man(a1-6)]Man(b1-4)GlcNAc(b1-4)[Fuc(a1-6)]GlcNAc
# Summary of the method: as §1
# [8] = biological target: Fuc(a1-2)Gal(b1-3)GlcNAc(b1-3)Gal(b1-4)Glc
# Summary of the method: as §1
# [9] = biological target: Fuc(a1-2)Gal(b1-3)GlcNAc(b1-3)GalNAc
# Summary of the method: as §1
# [10] = biological target: Fuc(a1-2)Gal(b1-3)GlcNAc(b1-3)[Fuc(a1-2)Gal(b1-3)GlcNAc(b1-6)]GalNAc
# Summary of the method: as §1
# [11] = biological target: Fuc(a1-2)Gal(b1-3)GlcNAc(b1-3)[Gal(b1-4)GlcNAc(b1-6)]Gal(b1-4)Glc
# Summary of the method: as §1
# [12] = biological target: Fuc(a1-2)Gal(b1-3)GlcNAc(b1-3)[Neu5Ac(a2-6)Gal(b1-4)GlcNAc(b1-6)]Gal(b1-4)Glc
# Summary of the method: as §1
# [13] = biological target: Fuc(a1-2)Gal(b1-3)GlcNAc6S
# Summary of the method: as §1
# [14] = biological target: Fuc(a1-2)Gal(b1-3)[Fuc(a1-4)]GlcNAc
# Summary of the method: as §1
# [15] = biological target: Fuc(a1-2)Gal(b1-3)[Fuc(a1-4)]GlcNAc(b1-2)Man(a1-3)[Fuc(a1-2)Gal(b1-3)[Fuc(a1-4)]GlcNAc(b1-2)Man(a1-3)]Man(b1-4)GlcNAc(b1-4)GlcNAc
# Summary of the method: as §1
# [16] = biological target: Fuc(a1-2)Gal(b1-3)[Fuc(a1-4)]GlcNAc(b1-2)Man(a1-3)[Fuc(a1-2)Gal(b1-3)[Fuc(a1-4)]GlcNAc(b1-2)Man(a1-6)]Man(b1-4)GlcNAc(b1-4)[Fuc(a1-6)]GlcNAc(b1-4)[Fuc(a1-6)]GlcNAc
# Summary of the method: as §1
# [17] = biological target: Fuc(a1-2)Gal(b1-3)[Fuc(a1-4)]GlcNAc(b1-3)[Fuc(a1-3)[Gal(b1-4)]GlcNAc(b1-6)]Gal(b1-4)Glc
# Summary of the method: as §1
# [18] = biological target: Fuc(a1-2)Gal(b1-3)[Fuc(a1-4)]GlcNAc(b1-3)[Gal(b1-4)GlcNAc(b1-6)]Gal(b1-4)Glc
# Summary of the method: as §1
# Fuc(a1-2)Gal(b1-4)Glc = biological target: Fuc(a1-2)Gal(b1-4)Glc
# Summary of the method: as §1
# Fuc(a1-2)Gal(b1-4)Glc6S = biological target: Fuc(a1-2)Gal(b1-4)Glc6S
# Summary of the method: as §1
# Fuc(a1-2)Gal(b1-4)GlcNAc = biological target: Fuc(a1-2)Gal(b1-4)GlcNAc
# Summary of the method: as §1
# [19] = biological target: Fuc(a1-2)Gal(b1-4)GlcNAc(b1-2)Man
# Summary of the method: as §1
# [20] = biological target: Fuc(a1-2)Gal(b1-4)GlcNAc(b1-2)Man(a1-3)[Fuc(a1-2)Gal(b1-4)GlcNAc(b1-2)Man(a1-6)]Man(b1-4)GlcNAc(b1-4)GlcNAc
# Summary of the method: as §1
# [21] = biological target: Fuc(a1-2)Gal(b1-4)GlcNAc(b1-2)Man(a1-3)[Fuc(a1-2)Gal(b1-4)GlcNAc(b1-2)Man(a1-6)]Man(b1-4)GlcNAc(b1-4)[Fuc(a1-6)]GlcNAc
# Summary of the method: as §1
# [22] = biological target: Fuc(a1-2)Gal(b1-4)GlcNAc(b1-2)[Fuc(a1-2)Gal(b1-4)GlcNAc(b1-4)]Man(a1-3)[Fuc(a1-2)Gal(b1-4)GlcNAc(b1-2)Man(a1-6)]Man(b1-4)GlcNAc(b1-4)GlcNAc
# Summary of the method: as §1
# [23] = biological target: Fuc(a1-2)Gal(b1-4)GlcNAc(b1-3)Gal(b1-4)GlcNAc
# Summary of the method: as §1
# [24] = biological target: Fuc(a1-2)Gal(b1-4)GlcNAc(b1-3)Gal(b1-4)GlcNAc(b1-2)Man(a1-3)[Fuc(a1-2)Gal(b1-4)GlcNAc(b1-3)Gal(b1-4)GlcNAc(b1-2)Man(a1-6)]Man(b1-4)GlcNAc(b1-4)GlcNAc
# Summary of the method: as §1
# [25] = biological target: Fuc(a1-2)Gal(b1-4)GlcNAc(b1-3)Gal(b1-4)GlcNAc(b1-3)Gal(b1-4)GlcNAc
# Summary of the method: as §1
# [26] = biological target: Fuc(a1-2)Gal(b1-4)GlcNAc(b1-3)GalNAc
# Summary of the method: as §1
# [27] = biological target: Fuc(a1-2)Gal(b1-4)GlcNAc(b1-3)[Fuc(a1-2)Gal(b1-4)GlcNAc(b1-6)]GalNAc
# Summary of the method: as §1
# [28] = biological target: Fuc(a1-2)Gal(b1-4)GlcNAc(b1-3)[Fuc(a1-3)[Gal(b1-4)]GlcNAc(b1-6)]Gal(b1-4)Glc
# Summary of the method: as §1
# [29] = biological target: Fuc(a1-2)Gal(b1-4)GlcNAc(b1-6)GalNAc
# Summary of the method: as §1
# [30] = biological target: Fuc(a1-2)Gal(b1-4)GlcNAc6S
# Summary of the method: as §1
# [31] = biological target: Fuc(a1-2)Gal(b1-4)[Fuc(a1-3)]GlcNAc
# Summary of the method: as §1
binder,measurement,setting,value
SP15308F-bth-333-19-333 (Bacteroides thetaiotaomicron) (protein) SCNNEWESEQYVQMVSFKAPVNAQGVTPIYIRYKPEGKVTYQLPLIVSGSTMNSKDLNVHVGLDLDTLDVLNVEHFGSRKELFFKPLENKYYEFPETVQIPAGECTSLLPIDFALKDLDQVDKWVLPLAIQSNDPSHNYQANPRKFYRRAMLRISPFNDYSGQYSATAYKVYFKGNEKEAIVPEYHTSYVIDDKTIFFYAGLIDIDRLDRKYYKIKFEFTEEKIDLQTRKLKISSDNEDINLVVKGQPSYTVEEEMDATRPYLKHIYVTINNLEYEFTDYTSVPGYPLEYVVKGSLTMERKINTQIPDEDQAIEW,glycan array binding signal (z-score),Fuc(a1-2)Gal,-0.518
same,glycan array binding signal (z-score),Fuc(a1-2)Gal(b1-3)GalNAc,-0.116
same,glycan array binding signal (z-score),[1],-0.093
same,glycan array binding signal (z-score),[2],-1.37
same,glycan array binding signal (z-score),[3],-0.613
same,glycan array binding signal (z-score),[4],-1.74
same,glycan array binding signal (z-score),[5],0.435
same,glycan array binding signal (z-score),Fuc(a1-2)Gal(b1-3)GlcNAc,0.204
same,glycan array binding signal (z-score),[6],0.737
same,glycan array binding signal (z-score),[7],-0.077
same,glycan array binding signal (z-score),[8],-0.538
same,glycan array binding signal (z-score),[9],-1.71
same,glycan array binding signal (z-score),[10],0.606
same,glycan array binding signal (z-score),[11],-0.314
same,glycan array binding signal (z-score),[12],-0.841
same,glycan array binding signal (z-score),[13],-0.912
same,glycan array binding signal (z-score),[14],-0.643
same,glycan array binding signal (z-score),[15],0.921
same,glycan array binding signal (z-score),[16],1.98
same,glycan array binding signal (z-score),[17],-0.356
same,glycan array binding signal (z-score),[18],-0.933
same,glycan array binding signal (z-score),Fuc(a1-2)Gal(b1-4)Glc,-1.21
same,glycan array binding signal (z-score),Fuc(a1-2)Gal(b1-4)Glc6S,0.887
same,glycan array binding signal (z-score),Fuc(a1-2)Gal(b1-4)GlcNAc,-1.51
same,glycan array binding signal (z-score),[19],-0.339
same,glycan array binding signal (z-score),[20],-0.837
same,glycan array binding signal (z-score),[21],0.226
same,glycan array binding signal (z-score),[22],-0.932
same,glycan array binding signal (z-score),[23],0.138
same,glycan array binding signal (z-score),[24],3.55
same,glycan array binding signal (z-score),[25],-0.564
same,glycan array binding signal (z-score),[26],0.057
same,glycan array binding signal (z-score),[27],-0.209
same,glycan array binding signal (z-score),[28],1.11
same,glycan array binding signal (z-score),[29],0.404
same,glycan array binding signal (z-score),[30],-0.295
same,glycan array binding signal (z-score),[31],0.294

# Not a retest: entries from further up.
binder,measurement,setting,value
SP15308F-bth-333-19-333 (Bacteroides thetaiotaomicron) (protein) SCNNEWESEQYVQMVSFKAPVNAQGVTPIYIRYKPEGKVTYQLPLIVSGSTMNSKDLNVHVGLDLDTLDVLNVEHFGSRKELFFKPLENKYYEFPETVQIPAGECTSLLPIDFALKDLDQVDKWVLPLAIQSNDPSHNYQANPRKFYRRAMLRISPFNDYSGQYSATAYKVYFKGNEKEAIVPEYHTSYVIDDKTIFFYAGLIDIDRLDRKYYKIKFEFTEEKIDLQTRKLKISSDNEDINLVVKGQPSYTVEEEMDATRPYLKHIYVTINNLEYEFTDYTSVPGYPLEYVVKGSLTMERKINTQIPDEDQAIEW,glycan array binding signal (z-score),[21],0.226
same,glycan array binding signal (z-score),[22],-0.932
same,glycan array binding signal (z-score),[23],0.138
